According to US20130289092:
For at least one entry, the source does not settle the construct or the ends of the probe. Where cells or extracts were used, other partners may take part. For part of these data: A negative result means that nothing was seen under these conditions. For part of these data: Weaker means in comparison with the reference protein, sequence or condition of that experiment.

Sequences of proteins named here, by UniProt entry; tags and fusion partners are left off. A change or cut given only in a name is not applied to a line headed by its entry. Residues count along the entry.
UniProt P08621, 2-437: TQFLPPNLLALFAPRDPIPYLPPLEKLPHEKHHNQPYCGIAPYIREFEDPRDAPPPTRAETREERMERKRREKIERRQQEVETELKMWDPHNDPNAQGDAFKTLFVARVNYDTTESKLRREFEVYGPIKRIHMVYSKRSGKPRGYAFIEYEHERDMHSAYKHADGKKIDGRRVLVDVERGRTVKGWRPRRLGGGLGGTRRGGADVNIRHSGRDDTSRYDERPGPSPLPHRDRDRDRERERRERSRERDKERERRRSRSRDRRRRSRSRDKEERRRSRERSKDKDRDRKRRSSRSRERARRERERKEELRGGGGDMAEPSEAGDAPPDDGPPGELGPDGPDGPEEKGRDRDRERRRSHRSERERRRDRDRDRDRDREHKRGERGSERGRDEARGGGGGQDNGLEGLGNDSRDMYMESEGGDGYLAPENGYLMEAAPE
UniProt P09651: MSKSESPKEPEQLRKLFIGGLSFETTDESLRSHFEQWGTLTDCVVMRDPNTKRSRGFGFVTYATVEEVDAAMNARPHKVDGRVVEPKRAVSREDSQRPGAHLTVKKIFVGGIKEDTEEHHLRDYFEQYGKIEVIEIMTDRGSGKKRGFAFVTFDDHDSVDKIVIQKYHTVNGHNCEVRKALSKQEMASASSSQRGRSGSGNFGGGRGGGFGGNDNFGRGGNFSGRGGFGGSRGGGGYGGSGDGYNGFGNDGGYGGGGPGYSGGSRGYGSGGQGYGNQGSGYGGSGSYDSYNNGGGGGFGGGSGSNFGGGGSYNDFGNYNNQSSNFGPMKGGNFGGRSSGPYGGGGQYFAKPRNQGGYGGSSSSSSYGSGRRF
UniProt Q08211, whole entry: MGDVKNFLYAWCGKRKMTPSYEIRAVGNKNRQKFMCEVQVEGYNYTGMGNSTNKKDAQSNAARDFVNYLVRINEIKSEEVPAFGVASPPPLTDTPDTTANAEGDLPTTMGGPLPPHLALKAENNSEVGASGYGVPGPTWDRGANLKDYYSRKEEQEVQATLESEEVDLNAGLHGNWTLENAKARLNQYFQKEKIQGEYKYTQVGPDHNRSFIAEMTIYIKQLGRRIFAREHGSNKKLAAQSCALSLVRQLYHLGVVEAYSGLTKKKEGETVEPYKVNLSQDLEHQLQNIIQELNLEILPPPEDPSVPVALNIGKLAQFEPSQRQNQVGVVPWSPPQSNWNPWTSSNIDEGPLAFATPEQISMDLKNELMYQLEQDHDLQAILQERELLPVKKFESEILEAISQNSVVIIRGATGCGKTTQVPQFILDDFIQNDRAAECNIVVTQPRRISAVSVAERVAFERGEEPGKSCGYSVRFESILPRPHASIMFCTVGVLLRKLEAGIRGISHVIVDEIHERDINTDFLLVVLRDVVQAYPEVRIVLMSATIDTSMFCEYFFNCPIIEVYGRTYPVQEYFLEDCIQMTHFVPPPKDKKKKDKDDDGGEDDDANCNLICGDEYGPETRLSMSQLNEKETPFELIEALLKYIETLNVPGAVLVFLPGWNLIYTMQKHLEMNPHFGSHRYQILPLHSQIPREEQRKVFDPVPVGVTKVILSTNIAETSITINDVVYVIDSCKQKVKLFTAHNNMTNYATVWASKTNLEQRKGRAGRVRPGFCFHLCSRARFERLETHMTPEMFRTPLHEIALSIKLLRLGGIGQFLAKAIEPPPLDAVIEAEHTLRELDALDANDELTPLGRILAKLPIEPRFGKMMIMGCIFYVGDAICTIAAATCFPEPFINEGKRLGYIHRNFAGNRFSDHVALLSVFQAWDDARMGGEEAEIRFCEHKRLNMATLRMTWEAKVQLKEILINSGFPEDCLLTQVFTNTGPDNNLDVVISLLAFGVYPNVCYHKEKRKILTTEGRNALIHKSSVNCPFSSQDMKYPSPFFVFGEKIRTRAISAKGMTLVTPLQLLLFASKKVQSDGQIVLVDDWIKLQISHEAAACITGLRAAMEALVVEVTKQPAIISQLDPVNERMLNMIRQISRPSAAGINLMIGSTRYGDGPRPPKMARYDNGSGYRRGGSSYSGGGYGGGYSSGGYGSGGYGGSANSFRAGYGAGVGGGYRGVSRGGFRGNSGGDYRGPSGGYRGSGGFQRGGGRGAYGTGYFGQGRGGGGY
UniProt P06748, whole entry: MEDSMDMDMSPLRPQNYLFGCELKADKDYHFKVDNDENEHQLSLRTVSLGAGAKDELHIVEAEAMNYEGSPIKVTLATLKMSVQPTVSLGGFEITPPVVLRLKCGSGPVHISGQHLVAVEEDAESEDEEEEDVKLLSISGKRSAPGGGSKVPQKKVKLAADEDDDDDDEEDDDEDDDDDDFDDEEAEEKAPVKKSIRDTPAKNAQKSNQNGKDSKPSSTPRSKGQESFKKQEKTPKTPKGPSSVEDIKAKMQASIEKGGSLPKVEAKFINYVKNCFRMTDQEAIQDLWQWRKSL

Columns and labels:
Test in all cases: pull-down
[1] = target: U1 snRNP (U1-70K detected) (UniProt P08621); settings: ASO 2-14-2 MOE/2'-F/MOE, PS throughout, 5mC at position 2; greatly reduced U1 snRNP; 150 mM KCl washes; protein in an extract; protein details: nuclear extract; label: 3'-biotin on RNA
[2] = tested on: hnRNP A2; settings: protein in an extract, protein details: nuclear extract
[3] = target: hnRNP A1 (UniProt P09651); settings: protein in an extract, protein details: nuclear extract
[4] = target: RNA Helicase A (RHA) (UniProt Q08211); settings: PS throughout, protein in an extract, protein details: nuclear extract, label: RNA strand bead-bound
[5] = target: Nucleophosmin (NPM) (UniProt P06748); settings: PS throughout, protein in an extract, protein details: nuclear extract, label: RNA strand bead-bound
[6] = target: Interleukin enhancer-binding factor 3 (ILF3) (UniProt Q12906); settings: PS throughout, 300 mM KCl washes, protein in an extract, protein details: nuclear extract, label: RNA strand bead-bound, only the site is given
[7] = ASO strand uniform 2'-MOE, PS throughout, 5mC at all C, absent or reduced with MOE ASO, label: 3'-biotin on RNA, variant of SMN2 intron 7 RNA 23-mer
[8] = ASO strand 2'-MOE at two terminal nucleosides each end, 2'-F at 14 central, PS throughout, 5mC at position 2, absent or reduced with 2'-F ASO, label: 3'-biotin on RNA, variant of SMN2 intron 7 RNA 23-mer
[9] = nuclear extract, 30 C 40 min, 150 mM KCl washes, western blot, label: 3'-biotin
[10] = ASO uniform 2'-MOE, 5mC at all C, western, 300 mM KCl washes, only the site is given
[11] = ASO 2-14-2 MOE/2'-F/MOE, 5mC at position 2, LC-MS and western, 300 mM KCl washes, may be indirect, only the site is given

Sequence: AAGAGUAAGUCUGCCAGCAUUAUGAAAGUGAAU / TCACUUUCAUAAUGCUGG [SMN2 5' splice site RNA + ISIS 413147]
- binding result [1]: binds more weakly

Sequence: CUGCCAGCAUUAUGAAAGUGAAU / TCACTTTCATAATGCTGG [SMN2 intron 7 RNA + ISIS 396443]
- binding result [2, 7]: binds more weakly
- binding result [3, 7]: binds more weakly

Sequence: CUGCCAGCAUUAUGAAAGUGAAU / TCACUUUCAUAAUGCUGG [SMN2 intron 7 RNA + ISIS 413147]
- binding result [2, 8]: binds more weakly
- binding result [3, 8]: binds more weakly

Sequence: CUGCCAGCAUUAUGAAAGUGAAU [SMN2 intron 7 RNA 23-mer]
- binding result [2, 9]: binds
- binding result [3, 9]: binds

Sequence: TCACTTTCATAATGCTGG [ISIS 396443/25-nt target RNA duplex]
- binding result [4, 10]: no binding
- binding result [5, 10]: no binding
- binding result ([6]; ASO uniform 2'-MOE, 5mC at all C, western): no binding

Sequence: TCACUUUCAUAAUGCUGG [ISIS 413147/25-nt target RNA duplex]
- binding result [4, 11]: binds
- binding result [5, 11]: binds
- binding result ([6]; ASO 2-14-2 MOE/2'-F/MOE, 5mC at position 2, LC-MS and western, may be indirect): binds

Sequence: UCACTTUCAUAAUGCUGG [ISIS 439419/target RNA duplex]
- binding result ([5]; ASO mixed (S)-cEt (k) / 2'-MOE, 5mC at positions 2, 8 and 15, cEt/MOE ASO recruits predominantly NPM): binds

Sequence: UCACUUUCAUAAUGCUGG [ISIS 449003/target RNA duplex]
- binding result ([4]; ASO uniform 2'-OMe, 2'-OMe shows enhanced selectivity for RHA): binds
